Data taken from article PMC12005117.
Results are given in words; binding and its absence hold for the method and conditions named. Binding seen in cells or lysates may run through a third protein. Some binding calls cover weakened binding; strength is not graded here.

The chains behind the UniProt entries cited, without tags or fusion partners.
UniProt Q9Z0E3: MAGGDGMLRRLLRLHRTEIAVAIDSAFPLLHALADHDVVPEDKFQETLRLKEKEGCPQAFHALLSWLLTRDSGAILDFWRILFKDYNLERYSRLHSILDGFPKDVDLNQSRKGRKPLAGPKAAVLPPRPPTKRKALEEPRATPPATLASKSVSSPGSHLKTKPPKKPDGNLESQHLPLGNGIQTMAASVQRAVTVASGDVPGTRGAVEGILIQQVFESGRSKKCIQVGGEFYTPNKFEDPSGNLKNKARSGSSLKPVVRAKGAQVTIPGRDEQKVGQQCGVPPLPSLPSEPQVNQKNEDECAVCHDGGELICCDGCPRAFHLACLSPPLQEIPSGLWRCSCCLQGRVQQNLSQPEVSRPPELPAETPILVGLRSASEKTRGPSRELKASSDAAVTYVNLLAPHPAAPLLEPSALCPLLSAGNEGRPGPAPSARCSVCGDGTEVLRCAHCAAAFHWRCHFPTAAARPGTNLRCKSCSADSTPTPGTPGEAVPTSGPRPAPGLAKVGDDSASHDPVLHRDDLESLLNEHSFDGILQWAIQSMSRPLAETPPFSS
UniProt Q15022: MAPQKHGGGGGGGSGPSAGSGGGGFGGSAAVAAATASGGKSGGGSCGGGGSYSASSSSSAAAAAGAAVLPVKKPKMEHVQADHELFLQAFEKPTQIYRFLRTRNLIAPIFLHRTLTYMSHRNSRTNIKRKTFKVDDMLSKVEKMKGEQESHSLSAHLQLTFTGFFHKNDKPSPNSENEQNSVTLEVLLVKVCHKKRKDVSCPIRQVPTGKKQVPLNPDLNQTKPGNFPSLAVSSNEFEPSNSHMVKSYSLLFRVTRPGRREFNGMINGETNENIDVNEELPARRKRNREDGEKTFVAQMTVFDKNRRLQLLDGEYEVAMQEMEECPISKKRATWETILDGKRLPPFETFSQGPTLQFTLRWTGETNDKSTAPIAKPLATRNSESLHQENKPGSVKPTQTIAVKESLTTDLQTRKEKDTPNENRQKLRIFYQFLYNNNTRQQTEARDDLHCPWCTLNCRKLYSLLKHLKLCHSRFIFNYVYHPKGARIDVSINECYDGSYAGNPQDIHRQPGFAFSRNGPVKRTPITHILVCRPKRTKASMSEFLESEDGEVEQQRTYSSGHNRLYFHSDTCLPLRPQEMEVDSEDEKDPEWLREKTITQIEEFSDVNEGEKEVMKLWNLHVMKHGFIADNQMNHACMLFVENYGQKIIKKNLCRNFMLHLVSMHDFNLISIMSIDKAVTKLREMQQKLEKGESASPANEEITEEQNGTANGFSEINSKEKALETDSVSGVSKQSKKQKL

Target: Flag-tagged murine Aire (murine) (UniProt Q9Z0E3)
Assay: co-IP; nuclear extract of 293FT cells expressing Flag-tagged murine Aire (nuclease digestion, then 420 mM NaCl, 5 mM EDTA); 2 ug anti-Flag M2 Ab or control mouse IgG overnight at 4°C, Dynabeads Protein G; washed four times with PBS 0.1% NP-40; western blot

binding: binds
Substance: Suz12 (from UniProt Q15022 1-739)
